“And” between values parts separate entries of the source, which are not always exact repeats. Identical values can stand only once. ± gives the standard deviation of the averaged measurements. Over roughly 3,800 compounds, “cell shape (eccentricity) Z-score vs DMSO control” has its median near 1.1; the lowest 2% begin near -4.7. The list shows a part of the results.

This experiment deals with human monocyte-derived macrophages (M0). In words: cell shape (eccentricity) Z-score vs DMSO control; higher = more elongated, M2-like morphology. Conditions: 20 µM; 24 h; macrophage state: M0 (M-CSF).
Consider `CCn1cc(C(=O)O)c(=O)c2cc(F)c(N3CCNCC3)cc21`, for which the “cell shape (Z-score)” value turned out to be 1.32.
Next, `O=C(c1c(O)c2ccc(Cl)cc2[nH]c1=O)C1CC1`: 0.406; `O=C(Nc1cccc(NC(=O)c2cccc(O)c2O)c1)c1cccc(O)c1O`: -0.571.
Take `CC12CCC3c4ccc(O)cc4CCC3C1C[C@H](O)[C@@H]2O` (some centres not stated): the “cell shape (Z-score)” value was 1.07.
For `COC(=O)c1c(O)cc(C)cc1Oc1c(O)cc(OC)cc1CO`, the “cell shape (Z-score)” value was -0.773 ± 0.63.
For the compound `CCNC(=O)CCCC=CC[C@@H]1[C@H](C=C[C@H](O)CCc2ccccc2)[C@@H](O)C[C@@H]1O`, the “cell shape (Z-score)” value is -0.32.
Next, `COc1cc(O)c(CC=C(C)C)c(O)c1C(=O)CCc1ccc(O)cc1`: -0.218; `CC(C)(C)NC(=O)[C@@H]1CN(Cc2cccnc2)CCN1C[C@@H](O)C[C@@H](Cc1ccccc1)C(=O)NC1c2ccccc2C[C@@H]1O` (some centres not stated): 0.625; `O=C(CCc1ccc(O)cc1)c1c(O)c([C@@H]2O[C@H](CO)[C@@H](O)[C@H](O)[C@H]2O)c(O)c([C@@H]2O[C@H](CO)[C@@H](O)[C@H](O)[C@H]2O)c1O`: 0.000463.
For `O=C(Nc1nc2ccc(NC(=O)C34C[C@H]5C[C@@H](C3)C[C@@H](C4)C5)cc2s1)c1ccccc1`, the “cell shape (Z-score)” value was -4.79.
As for `Brc1c(Br)c(Br)c2[nH]nnc2c1Br`, the “cell shape (Z-score)” value was -0.429.
In the case of `C[C@@H]1CC[C@]2(C(=O)O)CC[C@]3(C)C(=CCC4[C@@]5(C)CC[C@H](O)C(C)(C)C5CC[C@]43C)C2[C@H]1C` (some centres not stated), the “cell shape (Z-score)” value came to 0.61.
In the case of `CC(=O)OCC/C(=C\CC1(O)C(C)CCC2C(C)(C)CCCC21C)COC(C)=O` (configuration not stated), the “cell shape (Z-score)” value stood at 0.661.
`C[C@@H]1O[C@@H](OCC2OC(OC3C(OC4C(Oc5c(-c6ccc(O)c(O)c6)oc6cc(O)cc(O)c6c5=O)OC(CO)C(O)C4O)OC(CO)C(O)C3O)C(O)C(O)C2O)[C@H](O)[C@H](O)[C@H]1O` (some centres not stated): the “cell shape (Z-score)” value was found to be 1.22.
For `CC(C)NC[C@H](O)COc1cccc2[nH]ccc12`, the “cell shape (Z-score)” value was determined as 0.164.
As for `CC(=O)[C@H]1CCC2C3C[C@H](C)C4=CC(=O)CC[C@]4(C)C3[C@@H](O)C[C@@]21C` (some centres not stated), the “cell shape (Z-score)” value came out at 1.21.
Turning to `COc1ccc2cc([C@H](C)C(=O)O)ccc2c1`, the “cell shape (Z-score)” value was 0.686.
In the case of `OCC1OC(OCC2OC(NCCc3ccc(O)cc3)C(O)C(O)C2O)C(O)C(O)C1O` (configuration not stated), the “cell shape (Z-score)” value is 0.565.
In the case of `CCc1cn(C2OCC(O)C2CO)c(=O)nc1O` (configuration not stated), the “cell shape (Z-score)” value stood at 0.584.
Next, `c1ccc(C(NCc2cccnc2)(c2ccccc2)c2ccccc2)cc1`: 0.232; `C=C1C(=O)[C@@]23CCC4[C@](C)(C(=O)O)CCC[C@@]4(C)[C@@H]2CC[C@@H]1C3` (some centres not stated): 2.22; `Cc1nc(Nc2ncc(C(=O)Nc3c(C)cccc3Cl)s2)cc(N2CCN(CCO)CC2)n1`: 5.52 and 8.76.
With `C/C=C1/[C@H](O[C@@H]2O[C@H](CO)[C@@H](O)[C@H](O)[C@H]2O)OC=C(C(=O)OC)[C@H]1CC(=O)OCCc1ccc(OC(=O)C[C@@H]2C(C(=O)OC)=CO[C@@H](O[C@@H]3O[C@H](CO)[C@@H](O)[C@H](O)[C@H]3O)/C2=C/C)cc1`, the “cell shape (Z-score)” value worked out at 1.16.
As for `CC1(C)[C@H](O)CC[C@@]2(C)[C@@H]3CC[C@](C)(C(O)CO)CC3=CC[C@H]12` (some centres not stated), the “cell shape (Z-score)” value is 1.1.
Then `CC1=CC(=O)CC2C1(C)CCC(C)C2(C)CCC(C)CC(=O)O` (configuration not stated), with 0.972; and `Nc1ccc(S(=O)(=O)Nc2ccc(Cl)nn2)cc1`, with -0.192; and `C=C(C)[C@@H]1CC[C@]2(C(=O)O)CC[C@]3(C)[C@H](CCC4[C@@]5(C)CCC(=O)C(C)(C)C5C(O)C[C@]43C)C12` (some centres not stated), with 2.32 ± 2.1.
Consider `CN(C(=O)c1c(O)c2ccccc2n(C)c1=O)c1ccccc1`, for which the “cell shape (Z-score)” value turned out to be 0.342.
For `COc1ccc(CN(CCN(C)C)c2ccccn2)cc1`, the “cell shape (Z-score)” value was 1.96.
Then `COCCc1ccc(OCC(O)CNC(C)C)cc1` (configuration not stated), with -2.13.
On to `CN1C2CCC1CC(OC(=O)c1c[nH]c3ccccc13)C2` (configuration not stated), for which the “cell shape (Z-score)” value is -0.479.
Then `O=C(Cc1ccc(O)cc1)OC1[C@@H](O)[C@@H](O)C(OC(=O)Cc2ccc(O)cc2)[C@H](O)[C@@H]1O` (some centres not stated), with 2.31; and `COc1ccc(-c2oc3ccccc3c(=O)c2O)cc1OC`, with 5.09; and `COc1cc(/C=C/C(=O)CC(=O)/C=C/c2ccc(O)c(OC)c2)ccc1O`, with -0.792.
Turning to `COc1cc(O)c2c(=O)c(OC)c(-c3cc(O)c(OC)c(OC)c3)oc2c1`, the “cell shape (Z-score)” value was found to be 0.445 ± 0.68.
Next, `COC(=O)C(Cc1c[nH]c2ccccc12)NC(=O)C(NC(=O)C(C)NC(=O)/C=C/C(=O)O)C(C)c1c[nH]c2ccccc12` (configuration not stated): 4.69; `C[C@H](CO)N1C[C@H](C)[C@@H](CN(C)C(=O)Nc2cccc3ccccc23)Oc2ccc(NC(=O)c3ccncc3)cc2CC1=O`: -1.04; `CC(C)Oc1ccc2c(=O)cc(-c3ccccc3)oc2c1`: 3.09.
In the case of `COc1ccc(C(=O)c2ccccc2O)c(O)c1`, the “cell shape (Z-score)” value is 0.554.
`CCOC(=O)NCC(Cc1ccc(OCCc2nc(-c3ccccc3)oc2C)cc1)NC(C)=CC(=O)c1ccc(C(F)(F)F)cc1` (configuration not stated): the “cell shape (Z-score)” value amounted to 4.13.
For the compound `Clc1ccc(Cn2c(CN3CCCC3)nc3ccccc32)cc1`, the “cell shape (Z-score)” value came out at 0.213.
In the case of `CC1(C)CC[C@]2(C(=O)O[C@@H]3O[C@H](CO)[C@@H](O)[C@H](O)[C@H]3O)CC[C@]3(C)C(=CCC4[C@@]5(C)CC[C@H](O[C@@H]6O[C@H](CO)[C@@H](O)[C@H](O)[C@H]6O)[C@@](C)(CO)C5CC[C@]43C)[C@@H]2C1` (some centres not stated), the “cell shape (Z-score)” value was determined as 1.3.
Next, `O=C1C(SCCO)=C(SCCO)C(=O)c2ccccc21`: 2.63.
`COc1ccc2cccc(N3CCN(CCNC(=O)c4ccc(F)cc4)CC3)c2c1`: the “cell shape (Z-score)” value turned out to be 2.87.
Then `C=CCN1CCc2c(cc(O)c(O)c2Br)[C@@H](c2ccccc2)C1`, with 0.855; and `Cc1cc(Nc2nc(N[C@@H](C)c3ncc(F)cn3)ncc2Cl)n[nH]1`, with 7.45; and `CC(C)(C)NC(=O)[C@H]1CCC2C3CCC4NC(=O)C=C[C@]4(C)C3CC[C@@]21C` (some centres not stated), with 1.25.
`C[C@@H]1CC[C@]2(C(=O)OC3OC(COC4OC(CO)C(O[C@@H]5O[C@@H](C)[C@H](O)[C@@H](O)[C@H]5O)C(O)C4O)C(O)C(O)C3O)CC[C@]3(C)C(=CCC4[C@@]5(C)CC[C@@H](O)[C@](C)(C(=O)O)C5CC[C@]43C)C2[C@H]1C` (some centres not stated): the “cell shape (Z-score)” value is 1.12.
As for `CC(=O)Nc1cccc(O)c1`, the “cell shape (Z-score)” value came to 3.66.
Take `COC(=O)C1=CO[C@@H](O[C@@H]2O[C@H](CO)[C@@H](O)[C@H](O)[C@H]2O)[C@H]2[C@@H]1C=CC21C=C([C@H](C)OC(=O)/C=C/c2ccc(O)cc2)C(=O)O1` (some centres not stated): the “cell shape (Z-score)” value is 2.22.
`CCc1oc2ccccc2c1C(=O)c1cc(Br)c(O)c(Br)c1`: the “cell shape (Z-score)” value is -1.07.
Next, `COc1cc(C(C)=O)ccc1O[C@@H]1O[C@H](CO)[C@@H](O)[C@H](O)[C@H]1O`: -0.109; `C[C@@H]1O[C@@H](OC[C@H]2O[C@@H](c3c(O)cc4oc(-c5ccc(O)c(O)c5)cc(=O)c4c3O)[C@H](O)[C@@H](O)[C@@H]2O)[C@H](O)[C@H](O)[C@H]1O`: -0.453; `CO[C@H]1CC(O[C@@H]2/C(C)=C/C[C@@H]3C[C@@H](C[C@]4(CC[C@H](C)[C@@H](C5CCCCC5)O4)O3)OC(=O)[C@@H]3C=C(C)/C(=N/O)[C@H]4OC/C(=C\C=C\[C@@H]2C)[C@]43O)O[C@@H](C)C1O` (some centres not stated): 8.19.
For the compound `C[C@@H]1O[C@@H](Oc2ccc(-c3coc4cc(O[C@@H]5O[C@@H](C)[C@H](O)[C@@H](O)[C@H]5O)cc(O)c4c3=O)cc2)[C@H](O)[C@H](O)[C@H]1O`, the “cell shape (Z-score)” value was -0.632.
Consider `CCOC(=O)C12CC1C(=NO)c1ccccc1O2` (configuration not stated), for which the “cell shape (Z-score)” value stood at 2.79.
With `NS(=O)(=O)c1ccc(Cl)c(S(N)(=O)=O)c1`, the “cell shape (Z-score)” value was determined as 0.669.
Take `C/C(=C\C(=O)OCCCCCCCCC(=O)O)C[C@@H]1OC[C@H](C[C@@H]2O[C@H]2[C@@H](C)[C@H](C)O)[C@@H](O)[C@H]1O`: the “cell shape (Z-score)” value is 0.257.
`CC(C)(C)NCC(O)c1cc(O)cc(O)c1` (configuration not stated): the “cell shape (Z-score)” value amounted to 2.12.
Regarding `C=C1C2=C(O[C@H](/C(C)=C/C(C)CC(C)CC)[C@@H](O)[C@@H]2O)C(=O)N1OC` (some centres not stated), the “cell shape (Z-score)” value was 0.252 ± 0.046.
Next, `N#CC(=Cc1ccc(O)c(O)c1)C(=O)NCCCc1ccccc1`: -1.56.
Regarding `C=C1CC/C=C(/C(=O)O)C[C@H](O)C2C1CC2(C)C` (some centres not stated), the “cell shape (Z-score)” value was 0.708.
Then `CC1=CCC(C(C)(C)O[C@@H]2O[C@H](C)[C@@H](O)[C@H](O)[C@H]2O)CC1` (some centres not stated), with 0.119; and `CCC(C)C(=O)OCC1(c2ccc(C)cc2OC(=O)C(C)C)CO1` (configuration not stated), with 0.487 ± 1.1.
Regarding `CCOC(=O)[C@H](CCc1ccccc1)N[C@@H](C)C(=O)N1Cc2ccccc2C[C@H]1C(=O)O`, the “cell shape (Z-score)” value turned out to be 2.22.
Then `CC(C)CNc1ccnc(NCc2csc(-c3ccccc3)n2)n1`, with 5.76; and `COc1cc2ncnc(Nc3ccc(F)c(Cl)c3)c2cc1OCCCN1CCOCC1`, with 7.42; and `O=C1c2ccccc2C(Cc2ccncc2)(Cc2ccncc2)c2ccccc21`, with 1.37.
Take `CC[C@H]1OC(=O)[C@H](C)[C@@H](O[C@H]2C[C@@](C)(OC)[C@@H](O)[C@H](C)O2)[C@H](C)[C@@H](O[C@@H]2O[C@H](C)C[C@H](N(C)C)[C@H]2O)[C@](C)(O)C[C@@H](C)/C(=N\OCOCCOC)[C@H](C)[C@@H](O)[C@]1(C)O`: the “cell shape (Z-score)” value worked out at 2.41.
In the case of `CN1CCC[C@@H]1CCO[C@](C)(c1ccccc1)c1ccc(Cl)cc1`, the “cell shape (Z-score)” value amounted to 2.98.
On to `CCOc1ccc(NC(C)=O)cc1`, for which the “cell shape (Z-score)” value is -2.72.
Then `C=CCNC1=C(Cl)C(=O)c2ccccc2C1=O`, with -1.29; and `c1ccc2sc(N3CCN(Cc4ccc5c(c4)OCO5)CC3)nc2c1`, with 2.99.
Take `C#CCN(C)CCCOc1ccc(Cl)cc1Cl`: the “cell shape (Z-score)” value worked out at 0.86.
Consider `CN(C)CCC=C1c2ccccc2C=Cc2ccccc21`, for which the “cell shape (Z-score)” value was found to be 2.48.
Next, `CCN1CCC[C@H]1CNC(=O)c1c(O)c(Cl)cc(Cl)c1OC`: 3.
Then `COc1ccc(/C=C/C(=O)c2cc(O)ccc2O)cc1`, with 2.34; and `Cc1ccc(C(=O)N(CCCN)[C@H](c2oc3cc(Cl)ccc3c(=O)c2Cc2ccccc2)C(C)C)cc1`, with 3.83; and `C=C1CC(O)C2C(=C)C(=O)OC2C2C(=C)C(OC3OC(CO)C(O)C(OC(=O)/C=C/c4ccc(O)c(O)c4)C3O)CC12` (configuration not stated), with -1.95.
As to `O=C(NC1CCCCC1)NC1CCCCC1`, the “cell shape (Z-score)” value was 0.784.
`COc1ccc2c(c1)C(=O)CC(c1ccccc1)O2` (configuration not stated): the “cell shape (Z-score)” value came to 3.59.
With `CCCCNc1c(C(=O)OCC)c(C)nc2c1cnn2CC`, the “cell shape (Z-score)” value came out at 0.725.

The values above are taken from the supplement of paper PMC7858590.
